Source: the supplement of paper PMC6078165

System: MDAMB468
Assay: relative JC-1 red fluorescence (viability) vs pre-drug, coculture with fibroblast (fraction); higher = more viable cancer cells
Method: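 JC-1 labelled TNBC cells cocultured 1:1 (1,500 cells each) with CellTrace Violet stained primary or stromal fibroblasts in 384-well plates in FluoroBrite medium, treated with one of 42 anticancer drugs at 0.1, 1, 10 or 100 uM. JC-1 red fluorescence (mitochondrial integrity in cancer cells only) was read by plate reader every 8 h for 72 h. Values are normalised to each well's pre-drug value. The stock of one drug was tenfold lower, so its dose labels may be too high.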

O=C(CCCCCCC(=O)Nc1ccccc1)NO [Vorinostat]
relative JC-1 red fluorescence
Settings	8 h	16 h	24 h	32 h	40 h	48 h	56 h	64 h	72 h
0.1 µM, coculture fibroblast: C12385	0.85196	0.756	0.708	0.641	0.585	0.565	0.528	0.503	0.486
0.1 µM, coculture fibroblast: H6013	0.83975	0.8215	0.7667	0.747	0.7	0.697	0.662	0.657	0.615
0.1 µM, coculture fibroblast: H6019	0.803	0.7572	0.713	0.6581	0.6209	0.602	0.5596	0.5239	0.504
0.1 µM, coculture fibroblast: H6076	0.9072	0.946	0.861	0.816	0.739	0.725	0.682	0.662	0.684
0.1 µM, coculture fibroblast: H6231	0.8254	0.9857	0.827	0.7959	0.7473	0.717	0.65	0.619	0.6022
0.1 µM, coculture fibroblast: HADF	0.879	0.808	0.754	0.731	0.683	0.677	0.636	0.625	0.586
0.1 µM, coculture fibroblast: HCFa	0.851	0.833	0.786	0.758	0.694	0.69	0.635	0.606	0.57
0.1 µM, coculture fibroblast: HCPF	0.87	0.931	0.841	0.8	0.747	0.7076	0.656	0.64	0.617
0.1 µM, coculture fibroblast: HHSteC	0.861	0.8326	0.77719	0.723	0.664	0.6575	0.595	0.569	0.523
0.1 µM, coculture fibroblast: HMF	0.83	0.972	0.875	0.8262	0.7699	0.739	0.681	0.665	0.643
0.1 µM, coculture fibroblast: HPFa	0.9277	0.8577	0.809	0.758	0.717	0.715	0.641	0.603	0.525
0.1 µM, coculture fibroblast: HUF	0.881	0.78	0.721	0.656	0.609	0.581	0.533	0.507	0.4814
0.1 µM, coculture fibroblast: Hs5	0.906	0.849	0.925	0.891	0.83	0.801	0.758	0.722	0.732
0.1 µM, coculture fibroblast: Hs27A	0.855	0.805	0.7453	0.741	0.674	0.6747	0.632	0.608	0.573
0.1 µM, coculture fibroblast: Hs343T	0.8796	0.969	0.868	0.824	0.743	0.694	0.633	0.61	0.576
0.1 µM, coculture fibroblast: WS1	0.8092	0.722	0.663	0.599	0.548	0.517	0.487	0.467	0.457
1 µM, coculture fibroblast: C12385	0.874	0.796	0.688	0.588	0.529	0.504	0.467	0.436	0.427
1 µM, coculture fibroblast: H6013	0.8744	0.816	0.749	0.738	0.714	0.724	0.706	0.703	0.666
1 µM, coculture fibroblast: H6019	0.843	0.768	0.731	0.67	0.644	0.639	0.605	0.591	0.582
1 µM, coculture fibroblast: H6076	0.97	0.9731	0.8	0.777	0.688	0.667	0.63	0.61	0.664
1 µM, coculture fibroblast: H6231	0.807	0.883	0.763	0.718	0.6442	0.624	0.5827	0.561	0.553
1 µM, coculture fibroblast: HADF	0.8703	0.812	0.735	0.729	0.68	0.683	0.661	0.652	0.611
1 µM, coculture fibroblast: HCFa	0.847	0.7537	0.707	0.691	0.63	0.627	0.584	0.5592	0.5091
1 µM, coculture fibroblast: HCPF	0.8537	0.9558	0.79	0.769	0.714	0.686	0.629	0.62	0.607
1 µM, coculture fibroblast: HHSteC	0.894	0.816	0.778	0.752	0.728	0.729	0.672	0.656	0.609
1 µM, coculture fibroblast: HMF	0.8353	0.95932	0.778	0.726	0.641	0.613	0.551	0.531	0.517
1 µM, coculture fibroblast: HPFa	0.9154	0.873	0.802	0.759	0.732	0.746	0.682	0.665	0.6
1 µM, coculture fibroblast: HUF	0.8994	0.843	0.724	0.658	0.603	0.588	0.551	0.535	–
1 µM, coculture fibroblast: Hs5	0.798	0.945	0.878	0.833	0.757	0.72	0.688	0.661	0.686
1 µM, coculture fibroblast: Hs27A	0.822	0.696	0.692	0.694	0.65702	0.6627	0.633	0.623	0.583
1 µM, coculture fibroblast: Hs343T	0.878	0.9325	0.772	0.737	0.656	0.628	0.581	0.565	0.555
1 µM, coculture fibroblast: WS1	0.867	0.758	0.678	0.605	0.564	0.534	0.518	0.5	0.498
10 µM, coculture fibroblast: C12385	0.856	0.674	0.543	0.438	0.382	0.372	0.337	0.309	0.295
10 µM, coculture fibroblast: H6013	0.8619	0.81	0.74	0.672	0.649	0.648	0.626	0.618	0.558
10 µM, coculture fibroblast: H6019	0.792	0.6877	0.612	0.561	0.55	0.572	0.558	0.569	0.58
10 µM, coculture fibroblast: H6076	0.923	0.913	0.77	0.732	0.649	0.639	0.612	0.599	0.661
10 µM, coculture fibroblast: H6231	0.8501	0.926	0.701	0.667	0.58	0.563	0.518	0.489	0.502
10 µM, coculture fibroblast: HADF	0.9118	0.783	0.66792	0.593	0.535	0.525	0.4744	0.45795	0.384
10 µM, coculture fibroblast: HCFa	0.858	0.775	0.6916	0.6229	0.5634	0.55	0.505	0.49	0.447
10 µM, coculture fibroblast: HCPF	0.877	0.868	0.7447	0.715	0.605	0.562	0.509	0.495	0.488
10 µM, coculture fibroblast: HHSteC	0.8733	0.7735	0.673	0.58383	0.525	0.523	0.467	0.4523	0.406
10 µM, coculture fibroblast: HMF	0.8474	0.883	0.732	0.678	0.588	0.544	0.473	0.456	0.457
10 µM, coculture fibroblast: HPFa	0.91	0.793	0.693	0.587	0.541	0.537	0.486	0.475	0.424
10 µM, coculture fibroblast: HUF	0.928	0.778	0.689	0.609	0.562	0.56	0.526	0.527	0.532
10 µM, coculture fibroblast: Hs5	0.98	0.871	0.747	0.6975	0.6095	0.5846	0.5607	0.539	0.579
10 µM, coculture fibroblast: Hs27A	0.88	0.7939	0.7443	0.7153	0.6777	0.6853	0.6666	0.668	0.597
10 µM, coculture fibroblast: Hs343T	0.9103	0.919	0.753	0.7	0.596	0.564	0.512	0.497	0.493
10 µM, coculture fibroblast: WS1	0.838	0.663	0.548	0.46	0.403	0.379	0.347	0.324	0.315
100 µM, coculture fibroblast: C12385	0.9298	0.788	0.606	0.48	0.409	0.38	0.336	0.311	0.301
100 µM, coculture fibroblast: H6013	0.987	0.858	0.721	0.603	0.548	0.546	0.514	0.5	0.438
100 µM, coculture fibroblast: H6019	0.897	0.686	0.537	0.433	0.397	0.406	0.392	0.408	0.412
100 µM, coculture fibroblast: H6076	0.871	0.954	0.811	0.771	0.681	0.663	0.652	0.631	0.708
100 µM, coculture fibroblast: H6231	0.877	0.918	0.743	0.704	0.6	0.575	0.536	0.517	0.524
100 µM, coculture fibroblast: HADF	0.743	0.8858	0.746	0.648	0.578	0.556	0.51	0.482	0.406
100 µM, coculture fibroblast: HCFa	0.945	0.8134	0.671	0.556	0.4722	0.4491	0.408	0.389	0.347
100 µM, coculture fibroblast: HCPF	0.891	0.9548	0.862	0.835	0.751	0.723	0.673	0.661	0.644
100 µM, coculture fibroblast: HHSteC	0.885	0.8537	0.731	0.639	0.592	0.5945	0.532	0.5133	0.4569
100 µM, coculture fibroblast: HMF	0.87	0.961	0.8928	0.8617	0.771	0.7562	0.7104	0.6837	0.6694
100 µM, coculture fibroblast: HPFa	0.904	0.963	0.803	0.67	0.617	0.599	0.536	0.522	0.454
100 µM, coculture fibroblast: HUF	0.951	0.743	0.59	0.512	0.4547	0.435	0.393	0.389	0.384
100 µM, coculture fibroblast: Hs5	0.828	0.956	0.677	0.573	0.475	0.441	0.408	0.384	0.417
100 µM, coculture fibroblast: Hs27A	0.9586	0.835	0.743	0.652	0.579	0.55	0.513	0.479	0.401
100 µM, coculture fibroblast: Hs343T	0.933	0.898	0.754	0.686	0.563	0.53	0.484	0.462	0.45
100 µM, coculture fibroblast: WS1	0.9334	0.7388	0.581	0.433	0.351	0.32	0.286	0.269	0.266

The reference is the same well before dosing, and untreated signal decays as well.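 Fibroblast labels name human fibroblasts: mostly primary ones from tissues such as uterus (C12385, HUF), lung (H6013), bone (Hs27A), adrenal (HADF) and skin (WS1), plus mammary HMF and breast cancer-associated Hs343T. The cancer cells are basal-like or mesenchymal-like triple-negative breast cancer lines. The paper calls a changed response a hit when it shifts by more than 3x the replicate standard deviation. The tissue of the other fibroblasts is not given here.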
